In article doi:10.1101/2020.05.19.104463 one finds binding data, which are given here for 1 substance.

Results are given in words; binding and its absence hold for the method and conditions named. Binding seen in cells or lysates may run through a third protein. A result given as binding can be weak or reduced; the word gives no strength. Tags and fused reporters may be left off the sequences shown.

The target in the test is T1, GFP-RAB13 (wild type) (human) (UniProt P51153).
T1 sequence: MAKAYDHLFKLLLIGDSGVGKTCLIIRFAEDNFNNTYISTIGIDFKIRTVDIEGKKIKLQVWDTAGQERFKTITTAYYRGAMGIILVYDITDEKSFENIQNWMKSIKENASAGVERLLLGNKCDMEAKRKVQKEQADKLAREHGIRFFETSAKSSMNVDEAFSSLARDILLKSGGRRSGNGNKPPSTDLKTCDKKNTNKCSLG
Put plainly: co-IP.

Turning to “RabGDI (human (endogenous in MDA-MB-231))”, the binding entry is reported as “binds”.
